Reference: patent publication US20140243396A1, “METHOD OF TREATING MUCOEPIDERMOID CARCINOMA” (DANA-FARBER CANCER INSTITUTE, INC., priority 2011, published 2014)
For part of these data: For at least one compound, name, drawing or mass did not settle the structure. Some results were stated once for a whole list of compounds, not compound by compound.

Assays:
CRTC1-MAML2 = assay: qPCR of CRTC1-MAML2 expression after shRNA; assay type: cell-based; details: H292 and H3118 cells, compared to shLUC
PDE4B = PDE4B expression in cells (qPCR); assay type: cell-based; details: MEC cells, forskolin treatment, data not shown
Description: FIG. 1 illustrates identification of CRTC1-MAML2 Target genes. […] RT-qPCR experiments were performed in triplicates. Columns: mean, bars: SD (n=3). *p<0.05, compared with expression from shLUC infected cells (Student t test). B Inhibition of CRTC1-MAML2 inhibited H3118 and H292 cell growth. Columns: mean, bars: SD (n=3). *p<0.05, **p<0.01, ***p<0.001, compared with shLUC. […] Columns: mean, bars: SD (n=3). […] Image was cropped and auto-leveled by Photoshop. A representative of three independent experiments.
Total RNA was isolated by the Trizol method (Invitrogen). qPCR was performed using ABI PRISM 7500 sequence detector (Applied Biosystems, Foster City, Calif.) by SYBR method (Applied Biosystems). The SYBR method uses SYBR Green I dye, which is a highly specific, double-stranded DNA binding dye, to detect PCR product as it accumulates during PCR cycles. All samples were amplified in triplicates. The relative change of transcript amount was normalized with the GAPDH mRNA expression levels (20).

Row | Molecule | inhibition of CRTC1-MAML2 expression (CRTC1-MAML2) | PDE4B expression (in words) (PDE4B)
1 | shRNA #A: small hairpin RNA targeting the MAML2 moiety of CRTC1-MAML2, GTAATCAACCTAACACATA, SEQ ID NO 3 | 30%-70% | 
2 | shRNA #D: small hairpin RNA targeting the MAML2 moiety of CRTC1-MAML2, GACAGAGCCTGGTAATGAT, SEQ ID NO 4 | 30%-70% | 
3 | C=C[C@@]1(C)CC(=O)[C@]2(O)[C@@]3(C)[C@@H](O)CCC(C)(C)[C@@H]3[C@H](O)[C@H](OC(C)=O)[C@@]2(C)O1 [forskolin] |  | did not change
